According to PubChem BioAssay AID504648 (National Center for Advancing Translational Sciences (NCATS), 2011):
In all, about 390,000 compounds went through this assay and about 610 (0.16%) were called active. The inconclusive results got no clear call from the source; some entries with a clear call stand among them for comparison. Calls follow the shape of the dose curve; as a rule, active = well fitted inhibition curve with a large enough effect; inconclusive = small, poorly fitted or top-dose-only effect, or effect the other way, or another doubt; inactive = no such curve, though single readings can be large or run the other way. A potency beside an inconclusive call is a rough fit, not a confirmed value.

experiment: Nrf2 qHTS screen for inhibitors: counterscreen for cytotoxicity; settings: A549 ARE-Fluc cells, CellTiter-Fluor viability, 18-24 h; activity change, negative = cytotoxicity: at 46 µM (top of the series)
Procedure, shortened: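 Cytotoxicity counterscreen: CellTiter-Fluor fluorescence was measured in A549 ARE_Fluc cells after 18-24 h of compound exposure in a concentration series. The subsequent BugLite luminescent read reports ARE-luciferase activity.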
% is scaled to controls: 0 for no effect and ±100 for the full control effect; potency is read from the fitted curve at half-maximal effect.

SMILES	Potency	activity change, negative = cytotoxicity
CCOc1cc(/C=C2\CN(CC)C/C(=C\c3ccc(O)c(OCC)c3)C2=O)ccc1O	inconclusive: 29.1 µM [falling, single point]	
COc1cc(N=Nc2c(C)n(C)n(-c3ccccc3)c2=O)ccc1N	inconclusive: 25.9 µM [falling, partial curve, poor fit]	
COc1ccc2sc3ccccc3c(=O)c2c1OC		inactive: -6.78%
O=C(CCC1N=C2c3ccccc3N=C(SCc3ccccc3Cl)N2C1=O)NCc1ccco1 (stereo not given)	inconclusive: 29.1 µM [falling, single point]	
Cc1ccc(Nc2nnc(SCC(=O)Nc3cccc(S(=O)(=O)N4CCCCC4)c3)s2)cc1	inconclusive: 13 µM [activator, partial curve, poor fit]	
Cc1nc(C)c(CCNS(=O)(=O)c2ccc(F)cc2)s1		inactive: 1.13%
O=C(CCl)N(c1ccccc1)C1CCS(=O)(=O)C1 (stereo not given)	inconclusive: 18.4 µM [falling, single point]	
COc1ccc(OCCN(C)Cc2ccccc2)cc1	inconclusive: 32.6 µM [activator, partial curve, poor fit]	
O=C(CSc1ccc(-c2ccccn2)nn1)Nc1cccc(F)c1	inconclusive: 14.6 µM [falling, partial curve, poor fit]	
CS(=O)(=O)c1ccc(NC(=O)c2cccc(S(=O)(=O)N3CCN(Cc4ccccc4)CC3)c2)cc1		inactive: -17.2%
COc1cccc(NC(=O)CCc2c(C)nc3ncnn3c2C)c1		inactive: 1.4%
Cc1noc(C)c1CSc1nc2ccccc2nc1NS(=O)(=O)c1ccc(Cl)cc1	inconclusive: 20.6 µM [falling, single point]	
O=C(Nc1cccc(Cl)c1)Nc1nnc(CC2=CCCCC2)s1	inconclusive: 16.4 µM [falling, partial curve, poor fit]	
CC(C)Cc1cc(C(=O)N2N=C(C(F)F)CC2(O)C(F)F)c2ccccc2n1 (stereo not given)		inactive: -21.4%
CC1CCC/C(=N\NC(=O)COc2ccccc2Cl)C1 (stereo not given)		inactive: -1.75%
CC(C)(C)c1csc(NNC(=O)c2ccc(Br)cc2)n1	inconclusive: 16.4 µM [falling, single point]	
COc1cccc(C(=O)Nc2ccccc2OCc2cc(=O)n3ccccc3n2)c1		inactive: -8.21%
NS(=O)(=O)c1ccc(Nc2nc(-c3ccc4ccccc4c3)cs2)cc1	inconclusive: 18.4 µM [falling, single point]	
CCOc1ccc(CN2CCc3nc(N4CCN(c5ccccn5)CC4)ncc3C2)cc1OC	inconclusive: 32.6 µM [falling, partial curve, poor fit]	
C=CCOc1nc2c(c(=O)n(Cc3ccc(Cl)cc3)c(=O)n2C)n1C	inconclusive: 18.4 µM [activator, partial curve, poor fit]	

Arranged by number of heavy atoms (low to high): some entries from above.
SMILES	Potency	activity change, negative = cytotoxicity
O=C(CCl)N(c1ccccc1)C1CCS(=O)(=O)C1 (stereo not given)	inconclusive: 18.4 µM [falling, single point]	
CC(C)(C)c1csc(NNC(=O)c2ccc(Br)cc2)n1	inconclusive: 16.4 µM [falling, single point]	
COc1cccc(NC(=O)CCc2c(C)nc3ncnn3c2C)c1		inactive: 1.4%
C=CCOc1nc2c(c(=O)n(Cc3ccc(Cl)cc3)c(=O)n2C)n1C	inconclusive: 18.4 µM [activator, partial curve, poor fit]	
O=C(CCC1N=C2c3ccccc3N=C(SCc3ccccc3Cl)N2C1=O)NCc1ccco1 (stereo not given)	inconclusive: 29.1 µM [falling, single point]	
CS(=O)(=O)c1ccc(NC(=O)c2cccc(S(=O)(=O)N3CCN(Cc4ccccc4)CC3)c2)cc1		inactive: -17.2%
